Results as given in the M2OR odorant receptor database.
The other results are listed elsewhere or left out. The calls were merged from several studies; some rest on single wells.

Experiments:
Settings in all cases: stereoisomer not certain
[1] = system: T1, O52I2
T1 sequence (whole entry): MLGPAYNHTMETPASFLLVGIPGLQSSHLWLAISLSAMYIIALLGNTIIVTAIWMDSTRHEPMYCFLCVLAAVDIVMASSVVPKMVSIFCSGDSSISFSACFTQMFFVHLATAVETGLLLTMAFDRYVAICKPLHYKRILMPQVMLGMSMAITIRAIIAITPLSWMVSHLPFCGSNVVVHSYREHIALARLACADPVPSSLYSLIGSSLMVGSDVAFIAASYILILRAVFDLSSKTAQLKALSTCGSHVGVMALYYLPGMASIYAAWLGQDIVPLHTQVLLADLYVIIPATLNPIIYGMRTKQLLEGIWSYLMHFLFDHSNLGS
Method in brief: (§1)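 Values were gathered from published papers (main text and supplementary material), with extra details requested from the original authors when needed, and checked for typos and inconsistencies. Each receptor–molecule pair is called responsive (active) if the original authors judged the measured signal statistically different from baseline, and non-responsive (inactive) otherwise. Assay methods varied by source, often transient mammalian cell-line luciferase assays. Recorded details include cell line, G-protein, co-transfected protein and tags.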

[2] = system: T2, O52J3
T2 sequence (whole entry): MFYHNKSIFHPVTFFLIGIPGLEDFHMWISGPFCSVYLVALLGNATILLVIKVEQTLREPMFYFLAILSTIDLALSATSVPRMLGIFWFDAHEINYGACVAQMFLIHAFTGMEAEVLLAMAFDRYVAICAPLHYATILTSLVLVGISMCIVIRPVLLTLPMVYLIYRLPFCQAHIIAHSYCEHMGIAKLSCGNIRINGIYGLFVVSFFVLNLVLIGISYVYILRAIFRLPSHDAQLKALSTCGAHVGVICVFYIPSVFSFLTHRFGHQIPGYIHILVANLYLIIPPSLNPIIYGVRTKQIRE
Method in brief: as §1

[3] = system: T3, O52L1
T3 sequence (whole entry): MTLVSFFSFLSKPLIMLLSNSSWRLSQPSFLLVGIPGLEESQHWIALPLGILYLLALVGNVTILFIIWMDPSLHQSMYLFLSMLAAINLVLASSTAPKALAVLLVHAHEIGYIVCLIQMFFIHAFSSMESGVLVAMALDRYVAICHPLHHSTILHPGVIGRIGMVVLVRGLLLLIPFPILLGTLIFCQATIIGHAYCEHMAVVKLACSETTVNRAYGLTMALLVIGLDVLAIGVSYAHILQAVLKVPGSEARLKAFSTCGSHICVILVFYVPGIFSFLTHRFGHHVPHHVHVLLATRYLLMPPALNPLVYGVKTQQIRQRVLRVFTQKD
Method in brief: as §1

[4] = system: T4, O52L2
T4 sequence (whole entry): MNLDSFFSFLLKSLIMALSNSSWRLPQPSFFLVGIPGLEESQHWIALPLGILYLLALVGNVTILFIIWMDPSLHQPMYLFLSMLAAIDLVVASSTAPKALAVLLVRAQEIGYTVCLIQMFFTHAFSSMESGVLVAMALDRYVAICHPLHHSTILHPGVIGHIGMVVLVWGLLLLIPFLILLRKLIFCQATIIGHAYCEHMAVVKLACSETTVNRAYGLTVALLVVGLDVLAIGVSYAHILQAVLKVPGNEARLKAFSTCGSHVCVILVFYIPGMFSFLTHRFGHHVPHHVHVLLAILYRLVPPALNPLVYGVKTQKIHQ
Method in brief: as §1

[5] = system: T5, O52M1
T5 sequence (whole entry): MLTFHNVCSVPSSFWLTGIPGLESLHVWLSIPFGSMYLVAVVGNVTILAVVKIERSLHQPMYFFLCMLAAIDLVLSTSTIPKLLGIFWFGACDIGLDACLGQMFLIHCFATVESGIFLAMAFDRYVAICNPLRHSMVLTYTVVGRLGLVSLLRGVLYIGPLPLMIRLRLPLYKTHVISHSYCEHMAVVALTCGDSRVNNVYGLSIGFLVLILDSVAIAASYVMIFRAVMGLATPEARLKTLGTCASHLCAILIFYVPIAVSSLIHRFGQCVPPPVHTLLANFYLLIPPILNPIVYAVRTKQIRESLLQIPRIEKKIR
Method in brief: as §1

[6] = system: T6, O52N1
T6 sequence (whole entry): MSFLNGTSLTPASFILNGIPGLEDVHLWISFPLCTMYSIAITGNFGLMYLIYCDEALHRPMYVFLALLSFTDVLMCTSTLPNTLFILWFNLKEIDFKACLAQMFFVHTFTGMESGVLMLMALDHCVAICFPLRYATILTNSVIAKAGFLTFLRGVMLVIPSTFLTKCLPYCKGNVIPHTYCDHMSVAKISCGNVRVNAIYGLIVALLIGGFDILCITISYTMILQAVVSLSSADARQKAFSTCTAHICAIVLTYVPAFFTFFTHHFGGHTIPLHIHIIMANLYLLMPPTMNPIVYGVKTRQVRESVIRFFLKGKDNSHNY
Method in brief: as §1

[7] = system: T7, O52N2
T7 sequence (whole entry): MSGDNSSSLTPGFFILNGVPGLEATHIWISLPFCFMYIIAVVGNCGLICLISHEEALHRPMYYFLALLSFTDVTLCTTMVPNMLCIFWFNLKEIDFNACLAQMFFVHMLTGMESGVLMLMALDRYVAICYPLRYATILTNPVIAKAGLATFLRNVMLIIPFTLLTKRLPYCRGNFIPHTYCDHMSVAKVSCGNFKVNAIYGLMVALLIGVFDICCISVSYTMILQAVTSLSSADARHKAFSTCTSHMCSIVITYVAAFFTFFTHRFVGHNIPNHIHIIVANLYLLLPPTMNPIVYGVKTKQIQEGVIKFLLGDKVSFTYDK
Method in brief: as §1

[8] = system: T8, O52N4
T8 sequence (whole entry): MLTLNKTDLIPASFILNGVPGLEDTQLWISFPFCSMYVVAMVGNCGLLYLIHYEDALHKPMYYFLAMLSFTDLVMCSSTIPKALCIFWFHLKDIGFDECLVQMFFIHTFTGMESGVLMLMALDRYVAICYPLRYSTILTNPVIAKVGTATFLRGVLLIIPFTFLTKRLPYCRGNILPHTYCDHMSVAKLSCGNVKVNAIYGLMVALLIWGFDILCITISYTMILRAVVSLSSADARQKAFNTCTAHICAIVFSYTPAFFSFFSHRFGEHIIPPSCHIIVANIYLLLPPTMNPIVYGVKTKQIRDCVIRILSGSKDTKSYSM
Method in brief: as §1

[9] = system: T9, O52P1
T9 sequence (whole entry): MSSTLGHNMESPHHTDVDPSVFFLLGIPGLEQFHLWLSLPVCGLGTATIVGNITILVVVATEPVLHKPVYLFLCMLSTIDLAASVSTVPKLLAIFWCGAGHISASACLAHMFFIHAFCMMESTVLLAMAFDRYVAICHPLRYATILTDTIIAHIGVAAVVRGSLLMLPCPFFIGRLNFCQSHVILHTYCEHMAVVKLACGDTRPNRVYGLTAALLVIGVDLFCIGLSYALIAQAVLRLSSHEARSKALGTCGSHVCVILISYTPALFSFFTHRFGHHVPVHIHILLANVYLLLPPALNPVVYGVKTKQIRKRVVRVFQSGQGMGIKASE
Method in brief: as §1

[10] = system: T10, O52R1
T10 sequence (whole entry): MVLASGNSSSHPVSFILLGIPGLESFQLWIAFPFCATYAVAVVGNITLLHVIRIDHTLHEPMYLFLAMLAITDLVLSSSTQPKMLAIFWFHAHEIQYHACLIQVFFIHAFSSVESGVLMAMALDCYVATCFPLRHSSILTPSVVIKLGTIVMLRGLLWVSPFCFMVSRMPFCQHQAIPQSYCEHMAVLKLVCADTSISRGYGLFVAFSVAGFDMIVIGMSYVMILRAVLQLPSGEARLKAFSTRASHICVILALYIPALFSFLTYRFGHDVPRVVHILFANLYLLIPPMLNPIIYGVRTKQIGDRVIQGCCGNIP
Method in brief: as §1

[11] = system: T11, O52W1
T11 sequence (whole entry): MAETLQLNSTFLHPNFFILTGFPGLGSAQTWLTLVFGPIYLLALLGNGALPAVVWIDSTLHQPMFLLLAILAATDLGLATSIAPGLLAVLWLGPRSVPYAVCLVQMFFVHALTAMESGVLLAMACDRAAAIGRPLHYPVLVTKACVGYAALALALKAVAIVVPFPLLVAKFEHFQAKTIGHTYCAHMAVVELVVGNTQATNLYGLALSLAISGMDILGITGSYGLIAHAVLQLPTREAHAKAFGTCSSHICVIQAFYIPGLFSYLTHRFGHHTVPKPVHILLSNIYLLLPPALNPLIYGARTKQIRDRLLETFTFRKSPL
Method in brief: as §1

[12] = system: T12, O56A3
T12 sequence (whole entry): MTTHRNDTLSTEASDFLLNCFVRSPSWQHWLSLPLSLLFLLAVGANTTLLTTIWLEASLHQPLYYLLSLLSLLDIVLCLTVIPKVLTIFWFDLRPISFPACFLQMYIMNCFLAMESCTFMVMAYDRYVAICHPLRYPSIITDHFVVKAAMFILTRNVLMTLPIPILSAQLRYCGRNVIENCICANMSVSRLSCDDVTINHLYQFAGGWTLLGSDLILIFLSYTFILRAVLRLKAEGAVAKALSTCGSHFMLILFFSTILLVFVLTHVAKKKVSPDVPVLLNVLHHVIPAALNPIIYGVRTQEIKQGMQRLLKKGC
Method in brief: as §1

[13] = system: T13, O56B1
T13 sequence (whole entry): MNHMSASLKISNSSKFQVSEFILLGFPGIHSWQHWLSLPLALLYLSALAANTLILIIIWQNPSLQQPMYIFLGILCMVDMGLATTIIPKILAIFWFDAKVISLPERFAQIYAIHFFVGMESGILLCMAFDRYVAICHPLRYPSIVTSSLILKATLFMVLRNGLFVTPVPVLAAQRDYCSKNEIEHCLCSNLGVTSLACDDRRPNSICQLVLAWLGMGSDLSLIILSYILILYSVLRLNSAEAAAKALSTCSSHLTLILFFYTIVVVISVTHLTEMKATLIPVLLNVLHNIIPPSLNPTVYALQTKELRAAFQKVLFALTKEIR
Method in brief: as §1

[14] = system: T14, O56B4
T14 sequence (whole entry): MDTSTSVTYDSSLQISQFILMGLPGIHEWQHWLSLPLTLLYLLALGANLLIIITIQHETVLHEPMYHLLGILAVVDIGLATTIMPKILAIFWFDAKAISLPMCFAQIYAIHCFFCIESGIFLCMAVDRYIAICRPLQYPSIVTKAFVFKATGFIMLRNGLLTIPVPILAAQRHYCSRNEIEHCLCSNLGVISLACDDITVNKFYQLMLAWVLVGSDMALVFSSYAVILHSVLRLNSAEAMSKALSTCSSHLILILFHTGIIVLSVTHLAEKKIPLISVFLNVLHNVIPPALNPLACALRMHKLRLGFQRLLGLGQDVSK
Method in brief: as §1

[15] = system: T15, O5AC2
T15 sequence (whole entry): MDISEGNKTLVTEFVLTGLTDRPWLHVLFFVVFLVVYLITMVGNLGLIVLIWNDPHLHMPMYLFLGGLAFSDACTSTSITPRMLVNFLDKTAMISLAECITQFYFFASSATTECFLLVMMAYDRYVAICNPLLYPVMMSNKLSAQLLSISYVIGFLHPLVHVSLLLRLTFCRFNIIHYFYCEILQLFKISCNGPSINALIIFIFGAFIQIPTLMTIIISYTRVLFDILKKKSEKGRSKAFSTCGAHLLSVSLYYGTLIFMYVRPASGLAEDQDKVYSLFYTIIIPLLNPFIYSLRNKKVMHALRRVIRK
Method in brief: as §1

[16] = system: T16, O5AK2
T16 sequence (whole entry): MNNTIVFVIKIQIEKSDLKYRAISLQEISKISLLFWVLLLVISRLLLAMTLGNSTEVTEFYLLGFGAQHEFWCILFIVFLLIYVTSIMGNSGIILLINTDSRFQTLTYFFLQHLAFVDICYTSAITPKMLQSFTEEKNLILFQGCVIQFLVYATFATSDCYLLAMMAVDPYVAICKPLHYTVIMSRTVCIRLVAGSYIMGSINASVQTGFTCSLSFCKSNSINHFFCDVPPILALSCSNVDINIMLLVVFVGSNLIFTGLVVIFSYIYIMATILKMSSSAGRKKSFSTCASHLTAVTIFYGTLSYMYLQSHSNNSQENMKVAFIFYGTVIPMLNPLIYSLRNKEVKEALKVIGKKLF
Method in brief: as §1

[17] = system: T17, O5AK3
T17 sequence (whole entry): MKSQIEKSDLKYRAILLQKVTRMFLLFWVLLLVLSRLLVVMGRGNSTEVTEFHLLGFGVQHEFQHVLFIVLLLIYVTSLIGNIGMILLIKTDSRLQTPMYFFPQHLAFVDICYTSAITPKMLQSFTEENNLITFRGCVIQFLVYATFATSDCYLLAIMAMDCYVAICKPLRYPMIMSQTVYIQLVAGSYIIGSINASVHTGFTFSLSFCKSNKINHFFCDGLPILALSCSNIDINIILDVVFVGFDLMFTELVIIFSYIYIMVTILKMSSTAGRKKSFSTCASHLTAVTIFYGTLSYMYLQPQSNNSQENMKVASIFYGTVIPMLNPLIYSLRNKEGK
Method in brief: as §1

Structure (SMILES) | odorant receptor agonist call [1] | odorant receptor agonist call [2] | odorant receptor agonist call [3] | odorant receptor agonist call [4] | odorant receptor agonist call [5] | odorant receptor agonist call [6] | odorant receptor agonist call [7] | odorant receptor agonist call [8] | odorant receptor agonist call [9] | odorant receptor agonist call [10] | odorant receptor agonist call [11] | odorant receptor agonist call [12] | odorant receptor agonist call [13] | odorant receptor agonist call [14] | odorant receptor agonist call [15] | odorant receptor agonist call [16] | odorant receptor agonist call [17]
COc1cc(C=O)ccc1O | inactive | inactive | inactive | inactive | inactive | inactive | inactive | inactive | inactive | inactive | inactive | inactive | inactive | inactive | inactive | inactive | inactive
CCCCCCCCCCC=O | inactive | inactive | inactive | inactive | inactive | inactive | inactive | inactive | inactive | inactive | active | inactive | inactive | inactive | inactive | inactive | inactive
CCCCCCOC(=O)CCC | inactive | inactive | inactive | inactive | inactive | inactive | inactive | inactive | inactive | inactive | inactive | inactive | inactive | inactive | inactive | inactive | inactive
CC1COCc2cc3c(cc21)C(C)(C)C(C)C3(C)C (configuration not stated) | active | active | active | active | inactive | inactive | active | inactive | active | active | inactive | inactive | inactive | inactive | active | active | active
CCCCCCCC=CC=O | inactive | inactive | inactive | inactive | inactive | inactive | active | inactive | inactive | inactive | inactive | inactive | inactive | inactive | inactive | inactive | inactive
O=C1CCCCCCCCCCCC(=O)OCCO1 | inactive | inactive | inactive | inactive | inactive | inactive | active | inactive | inactive | active | inactive | inactive | inactive | inactive | inactive | inactive | inactive
